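Cleavage of a resorufin-linked glucose substrate by isolated lysosomal acid glucosylceramidase was followed by fluorescence over a 20-minute room-temperature incubation. Each compound was run as a titration series spanning about 0.6 nM up to 50 µM final. The number is the fitted half-maximal concentration (AC50); a lower value means a more potent inhibitor. The record treats a '>' qualifier as no measurable activity (inactive); no explicit numeric cut-off is stated.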

By UniProt entry, the sequences of proteins in these tests, tags left out.
UniProt P04062, whole entry, target on record: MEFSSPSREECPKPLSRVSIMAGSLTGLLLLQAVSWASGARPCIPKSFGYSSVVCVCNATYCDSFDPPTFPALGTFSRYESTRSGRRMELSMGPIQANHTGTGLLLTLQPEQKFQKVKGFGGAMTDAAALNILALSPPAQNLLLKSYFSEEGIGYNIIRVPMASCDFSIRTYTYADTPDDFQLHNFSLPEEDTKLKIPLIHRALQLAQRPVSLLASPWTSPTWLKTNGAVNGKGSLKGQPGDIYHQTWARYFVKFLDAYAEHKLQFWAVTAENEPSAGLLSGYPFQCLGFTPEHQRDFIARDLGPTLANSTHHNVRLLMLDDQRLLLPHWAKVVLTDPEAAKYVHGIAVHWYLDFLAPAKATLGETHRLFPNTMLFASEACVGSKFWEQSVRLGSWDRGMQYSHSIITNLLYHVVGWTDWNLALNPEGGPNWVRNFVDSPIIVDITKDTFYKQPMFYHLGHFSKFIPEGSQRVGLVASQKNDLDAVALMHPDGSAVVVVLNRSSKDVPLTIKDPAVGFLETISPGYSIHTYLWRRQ

Values are in µM. All entries here are filed as inactive. These are entries filed as inactive; the hits of the assay are not listed here.

structure,Potency (µM)
Cc1ccc(N(C(C)C(=O)N2CCC(C)CC2)S(C)(=O)=O)cc1C (configuration not stated),>76.9
Cc1ccnc(N2C(=O)OC(C)(C)C2(C)O)c1 (configuration not stated),>76.9
Cc1cc(-n2c(=O)c(C#N)cc3c(=O)n4ccccc4nc32)no1,>76.9
CC1(C)CC(=O)C2=C(C1)N1CCCCC1CC2=O (configuration not stated),>76.9
CC(C)Oc1ccc(CC2CC(=O)NC2=O)cc1 (configuration not stated),>76.9
CS(=O)(=O)N(CC(=O)N1CCCCCC1)c1ccccc1,>76.9
CC(C)C(NC(=O)OC(C)(C)C)C(=O)N1CCCC1C(=O)NC(Cc1ccccc1)C(N)=O (configuration not stated),>76.9
CC(=O)c1nc2ccccc2n1S(=O)(=O)c1ccc(Cl)cc1,>76.9
COCCCNC(=O)CC(NS(=O)(=O)c1ccc(C)cc1)c1ccco1 (configuration not stated),>76.9
Cc1cc2cc(C(c3nnnn3Cc3ccco3)N3CCc4ccccc4C3)c(=O)[nH]c2cc1C (configuration not stated),>76.9
O=C(CCn1c(=O)oc2ccccc21)NCc1cccs1,>76.9
Cc1cc2cc(CNC(=O)CC(C)C)ccc2n1C,>76.9
CC1(CCC#N)N=C(SCCC#N)N(c2ccccc2)C1=O (configuration not stated),>76.9
Cc1occc1C(=O)NCc1ccccc1F,>76.9
CC(C)CCN(C)C1CCN(S(=O)(=O)c2cccc(C(F)(F)F)c2)CC1,>76.9
N=C1C(c2ccccc2)=C(O)CN1c1ccc2c(c1)OCO2,>76.9
O=C(c1ccccc1Cl)N1CCCC(c2nc3c(nnn3Cc3ccccc3)c(=O)[nH]2)C1 (configuration not stated),>76.9
O=C(CCNc1n[nH]c(=O)[nH]c1=O)N1CCCCC1,>76.9
CCC(Sc1ccc2nnc(-c3ccc(F)cc3)n2n1)C(=O)O (configuration not stated),>76.9
COc1c(Cl)cc(Cl)cc1/C=N/n1cnnc1,>76.9
O=C(/C=N/O)Nc1ccc(F)cc1,>76.9
CCOCC(=O)Nc1cc(C(=O)OC)ccc1C(=O)OC,>76.9
Cc1cccc(C)c1OCC(=O)Nc1cccc(NC(=O)c2ccco2)c1,36
CCOC(=O)CSc1nc(C)cc(=O)[nH]1,>76.9
O=C(c1noc2c1CCCC2)N1CCN(c2ccc(F)cc2)CC1,>76.9
O=C(CCCC(=O)N(CC(=O)NC1CCCC1)C1CCCC1)Nc1ccccn1,>76.9
Cc1nn(Cc2ccc(C(=O)N3c4ccc(F)cc4CCC3C)o2)c(C)c1Br (configuration not stated),>76.9
Cn1c(Cn2nnc3ccccc32)nnc1SCC(=O)N1c2ccccc2Sc2ccccc21,>76.9
Cc1cc(C)c(C#N)c(SC2CCCCC2=O)n1 (configuration not stated),>76.9
Cc1cccc(C)c1NC(=O)C1(N(Cc2ccco2)C(=O)c2ccccn2)CCCC1,>76.9
CCN(C(=O)C1CCCCC1)c1nnc(-c2cccnc2)s1,>76.9
CC(C)(C)n1nnnc1CN1C2CCC1CC(NC(=O)Nc1ccccc1)C2 (configuration not stated),>76.9
O=C(Cn1nnc(-c2ccncc2)n1)N1CCc2ccccc21,>76.9
COc1ccc(NC(=O)CSc2[nH]c(=O)cc(C)c2C#N)cc1OC,>76.9
O=C(c1ccco1)n1nc(-c2ccc(Cl)cc2)nc1NCc1ccco1,>76.9
CCOc1ccccc1C(=O)Nn1c(C2CCC2)nc2ccccc2c1=O,>76.9
Cn1c(=O)c2c(-c3ccc(C(C)(C)C)cc3)n(N3CCOCC3)cc2n(C)c1=O,>76.9
CC(C)Cn1cc(C(=O)NCCCN2CCCC2=O)c2c3ccccc3n(C)c2c1=O,>76.9
CC(=O)c1c(C)[nH]c(C(=O)OCC(=O)Nc2cc(C(F)(F)F)ccc2N2CCOCC2)c1C,>76.9
CCC(C)C(NC(=O)OC(C)(C)C)C(=O)NC(CC(C)C)C(N)=O (configuration not stated),>76.9
Cc1cc(C)cc(C(=O)n2cnnc2N)c1,>76.9
O=C(CCn1nnc2ccccc2c1=O)N[C@H](C(=O)O)c1ccccc1,>76.9
CCOC(=O)CNC(=O)C(CO)NC(=O)OCc1ccccc1 (configuration not stated),>76.9
COc1ccc(S(=O)(=O)N2CCN(C(=O)c3cccc(Cl)c3)CC2)cc1,>76.9
COc1ccc(CCNC(=O)CN2CCC(n3nnc4cc(F)ccc43)CC2)cc1OC,>76.9
CC(NC(=O)COc1ccccc1)C1COc2ccccc2O1 (configuration not stated),>76.9
CC(C)(C)C1=Nn2c(nnc2-c2ccccc2F)SC1,>76.9
Cc1ccc(S(=O)(=O)N2CCN(C(=O)COC(=O)c3cc(C)oc3C)CC2)cc1,>76.9
O=C1CCC(C(=O)OCc2cc(Cl)ccc2OC(F)F)N1 (configuration not stated),>76.9
Cc1cccc(N2C(=O)SC(N(C)c3ccccc3)C2=O)c1 (configuration not stated),>76.9
Cc1ccc(-n2nc(-c3cccnc3)cc2C(=O)N2CCOCC2)c(C)c1,>76.9
CS(=O)(=O)Nc1ccccc1C(=O)N1CCOCC1,>76.9
COC(=O)NC1(C(F)(F)F)NC(=O)N(C2CCCCC2)C1=O (configuration not stated),>76.9
O=C(NC(C(=O)c1ccccc1)N1CCOCC1)c1cccs1 (configuration not stated),>76.9
O=C(Nc1ccc(F)cc1)Nc1ccc(Cl)cn1,>76.9
COc1ccccc1N1CCN(S(=O)(=O)c2ccc3c4c(cccc24)C(=O)N3C)CC1,>76.9
CC(C)CC(NC(=O)OC(C)(C)C)C(=O)NC(C(=O)NC(C)C(N)=O)C(C)C (configuration not stated),>76.9
Cc1occc1-c1nnc(SCC(=O)N2CCN(c3ccccc3)CC2)n1C,>76.9
CCOCC(=O)Nc1nnc(Cc2ccc(OC)c(OC)c2)s1,>76.9
CCc1nnc(NC(=O)C2CCCN2C(=O)NC2CCCCC2)s1 (configuration not stated),>76.9
CC(C)C(NC(=O)OCc1ccccc1)C(=O)OCC(=O)N1C(C)CCCC1C (configuration not stated),>76.9
Cc1ccc(S(=O)(=O)N2CCN(C(=O)N3CCOCC3)C2C(C)C)cc1 (configuration not stated),>76.9
COc1ccc(OC)c(NS(=O)(=O)Cc2ccccc2)c1,>76.9
CCN(c1ccccc1)S(=O)(=O)c1cnc[nH]1,>76.9
CCC1c2ccc(C)n2CCN1C(=O)Nc1ccc(F)cc1 (configuration not stated),>76.9
CC(C)(C)OC(=O)N1CC2Cc3[nH]c(=O)ccc3C(C2)C1 (configuration not stated),>76.9
CN1C(=O)CC(N2CCN(C(=O)CN3CCCC3)CC2)C1=O (configuration not stated),>76.9
Cc1nc2c(C(=O)NCCc3ccccc3)c[nH]n2c(=O)c1Cl,>76.9
COc1ccc(C(C#N)N2CCCCCC2)cc1OC (configuration not stated),>76.9
O=C(OCc1ccccc1)C1CCCN1C(=O)c1cccs1 (configuration not stated),>76.9
COC(=O)C(CCCCNC(=O)OCc1ccccc1)NC(=O)CN (configuration not stated),>76.9
O=C(NCC(=O)N(Cc1ccccc1)C(C(=O)NC1CCCC1)c1ccco1)c1ccco1 (configuration not stated),>76.9
Nc1c(S(=O)(=O)c2cccc(Cl)c2)c2nc3ccccc3nc2n1CCN1CCOCC1,>76.9
O=C1COc2ccc(C(=O)NCc3ccc4c(c3)OCO4)cc2N1,>76.9
COc1cccc(C(=O)OCC(=O)Nc2ccccc2N2CCOCC2)c1,>76.9
Cc1ccc(C(C)C)c(OCCN)c1,>76.9
CN(c1cccc(NC(=O)CN2C(=O)c3ccccc3S2(=O)=O)c1)S(C)(=O)=O,>76.9
COC(=O)c1[nH]c2ccccc2c1NC(=O)CN1CCC(C(N)=O)(N2CCCCC2)CC1,>76.9
O=C(c1ccc2c(c1)OCO2)N1CCN(c2ccccc2F)CC1,>76.9
COc1cc(C)c(S(=O)(=O)Nc2ccccc2F)cc1C,>76.9
CCOC(=O)c1c(C)[nH]c(C(=O)CSc2nnnn2-c2ccccc2)c1C,>76.9
CCCn1c(SCC(=O)Nc2c(C)cccc2CC)nnc1C(C)C,>76.9
CC(CCO)Nc1nc2c([nH]1)c(=O)n(C)c(=O)n2C (configuration not stated),>76.9
Cc1ccc(C)c(Cn2nnc3c(=O)[nH]c(C4CCCN(C(=O)CC(C)C)C4)nc32)c1 (configuration not stated),>76.9
O=C(NCCCn1ccnc1)c1noc2c1CCc1ccccc1-2,>76.9
O=S1(=O)CCN2C=Nc3sc4c(c3C2=N1)CCCC4,>76.9
CC(C)OCCCNC(=O)c1ccc(NS(C)(=O)=O)cc1,>76.9
CC(NC(=O)OC(C)(C)C)C(=O)N1CCCC1C(=O)NC(Cc1ccccc1)C(N)=O (configuration not stated),>76.9

From PubChem BioAssay record AID360 (NCATS, 2006).